Source: patent US20250177115A1, “COMBINATORIAL THERAPIES INCLUDING IMPLANTABLE DAMPING DEVICES AND THERAPEUTIC AGENTS FOR TREATING A CONDITION AND ASSOCIATED SYSTEMS AND METHODS OF USE” (THE BRAIN PROTECTION COMPANY PTY LTD, priority 2021, published 2025)
For at least one compound, name, drawing or mass did not settle the structure.

Tested on: microvascular fraction of the brain
Experiment: RT-qPCR targeted mRNA expression in the microvascular fraction of the brain
Assay type: in vivo, mice
[1] = globally (whole brain microvascular fraction), n=5 per group

SMILES: CCCCCCCCc1ccc(CCC(N)(CO)CO)cc1 [Fingolimod, fingolimod]
- MMP-9 expression (contralateral hemisphere, n=3, effect called ambiguous): tendency to be increased
- CERS2 expression [1]: decreased
- Claudin-5 expression [1]: significantly reduced
- S1PR3 mRNA expression [1]: tendency to decrease
- ICAM-1 expression (ipsilateral hemisphere, n=3): reduced
- S1PR1 mRNA expression (ipsilateral hemisphere, treated vs not treated, n=3): tendency to decrease
- CERS4 expression (treated ipsilateral hemisphere, n=3): decreased
